The assay concerns the target Ctenopharyngodon idella c-Jun NH2-terminal kinase (CiJNK) (Ctenopharyngodon idella (grass carp)). Nature of the assay: two-hybrid; mammalian two-hybrid in HEK293T cells; pBIND fusion and pACT fusion co-transfected with pG5-Luc; Firefly and Renilla luciferase measured 48 h after transfection.

No constants are given. Whether binding was seen depends on the method and setting. Binding calls can cover weak binding; strength is not graded here.

B1: Ctenopharyngodon idella MAPK kinase 7 (CiMKK7) (enzyme, UniProt A0A3G2LZC6 1-422)
chain: MSSLEQRLSRIEEKLKQENKEARKRIDLNIDMSPQRSRPRPTLQLPLANDGGSRSSSSESSPQHPSYPSRPRQMLTLPTPPYSLQKSLENAEIDQKLQEIMKQTGYLKIDGQRYPAEVTDLISEGEIGSGTCGQVFKVRFKKTGHVIAVKQMRRTGNKDENKRILMDLDVVLKSHDCPYIIQCYGAIVTNTDVFIAMELMGTCAEKLKKRIQGPIPEAILGKMTVAIVKALLYLKEKHGVIHRDVKPSNILLDAKGQIKLCDFGISGRLVDSKAKTRSAGCAAYMAPERIDPPDPSKPDYDIRADVWSLGISLVELATGQFPYKNCKTDFEVLTKVLQEDPPVLPLSMGFSPDFQSFVKDCLTKDHRKRPKYHKLLEHSFIRRYEVSEVDVAGWFQTVMERTESPRSSQCFSHHQLHSLFSR
Consider B1, for which the binding entry is “binds”.

B2: Ctenopharyngodon idella MAPK kinase 4 (CiMKK4) (enzyme, UniProt A0A3G2LZD3 1-403)
chain: MATSSSSSNPSAAAASSLSSSSAQQHPTQSQQHISSTMSSMQGKRKALKLNFANPPIKPTSRITLNTAGLPFQNPHMERLRTHSIESSGKLKISPEQHWDFTAEDLKDLGEIGRGAYGSVNKMMHKPSEQIMAVKRIRSTVDEREQKQLLMDLDVVMRSSDCPYIVQFYGALFREGDCWICMELMSTSFDKFYKYVYSSLDEVIPEEILGKITLATVKALNHLKENLKIIHRDIKPSNILLDRKGNIKLCDFGISGQLVDSIAKTRDAGCRPYMAPERIDPSASRQGYDVRSDVWSLGITLYELATGRFPYPKWNSVFDQLTQVVKGDPPQLSSSEERQFSPKFINFVNLCLTKDESKRPKYKELLKHPFIQMYEERTVDVASYVCMILDQMPASPSSPMYVD
As to B2, the binding entry was “binds”.

For the origin of these results see article PMC7134542.
